# From PubChem BioAssay AID504648 (National Center for Advancing Translational Sciences (NCATS), 2011)
# In all, about 390,000 compounds went through this assay and about 610 (0.16%) were called active. The shares of active, inactive and inconclusive entries below differ from those in the screen. Calls follow the shape of the dose curve; as a rule, active = well fitted inhibition curve with a large enough effect; inconclusive = small, poorly fitted or top-dose-only effect, or effect the other way, or another doubt; inactive = no such curve, though single readings can be large or run the other way. Potencies of inconclusive entries are doubtful fits and often do not repeat.
# Test: Nrf2 qHTS screen for inhibitors: counterscreen for cytotoxicity
# Details: A549 ARE-Fluc cells, CellTiter-Fluor viability, 18-24 h; series mostly up to 46 µM
# Summary of the method: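 A549 ARE-Fluc cells in 5% FBS OPTI-MEM, 5000 cells/well, rested 2 h then exposed to compounds in concentration-response for 18-24 h at 37 °C. Viability by CellTiter-Fluor fluorescence (Ex 405/Em 525) after 30 min; luciferase luminescence (BugLite, 15 min, RT) read afterwards.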
# Potency is read from the fitted curve at half-maximal effect.
row,SMILES,Potency
1,CCOC(=O)N1CCN(C(=O)c2ccc3c(c2)N(Cc2cc(C)ccc2C)C(=O)c2ccccc2S3=O)CC1 (stereo not drawn),"inconclusive: 29.1 µM [falling, single point]"
2,O=C(CCCN1C(=O)/C(=C/c2ccccc2Cl)SC1=S)NCCCN1CCOCC1,"inconclusive: 23.1 µM [falling, single point]"
3,CN(C(=O)CSc1nc(N)c2c3c(sc2n1)CSC(C)(C)C3)c1ccccc1,"inconclusive: 20.6 µM [falling, single point]"
4,Cc1ccccc1OCC(=O)Nc1ccc2nc(SCc3ccccc3)sc2c1,inactive
5,COc1ccc(C(=O)NC2CCCc3c2cnn3-c2cccc(C)c2C)c(OC)n1 (stereo not drawn),"inconclusive: 16.4 µM [falling, single point]"
6,O=C(NC(Cc1c[nH]c2ccccc12)C(=O)N/N=C/c1ccc(Cl)cc1)c1cccs1 (stereo not drawn),"inconclusive: 29.1 µM [falling, single point]"
7,O=C(C1CCCCC1)N1CCCC(c2nc3c(nnn3Cc3ccccc3)c(=O)[nH]2)C1 (stereo not drawn),"inconclusive: 29.1 µM [falling, single point]"
8,CC[n+]1ccc(/C=C/c2c[nH]c3ccccc23)cc1,"inconclusive: 5.8 µM [falling, full curve]"
9,CC1CC(C)CN(S(=O)(=O)c2ccc(C(=O)NCc3ccc4c(c3)OCO4)cc2)C1 (stereo not drawn),inactive
10,COc1ccc(-c2ccc(NS(=O)(=O)c3cccc(C)c3)cc2)nn1,"inconclusive: 23.1 µM [activator, partial curve, poor fit]"
11,O=C(c1cccc(NS(=O)(=O)c2ccc(F)c(F)c2)c1)N1CCN(C(c2ccccc2)c2ccccc2)CC1,inactive
12,C=CCNC(=O)C(=O)NCCOc1ccccc1Cl,inactive
13,O=C(O)c1ccccc1-c1nc(-c2ccccc2)c(-c2ccccc2)[nH]1,inactive
14,CC(=O)OCC(=O)[C@@]1(O)CC[C@H]2[C@@H]3CCC4=CC(=O)CC[C@]4(C)[C@H]3C(=O)C[C@@]21C,inactive
15,Cc1cc(=O)[nH]c(N/N=C/c2cc(C)n(CC(F)(F)F)c2C)n1,inactive
16,CCOC(=O)/C(=C\C=C1/Sc2cc(OCC)c(OCC)cc2N1CC)C(C)=O,"inconclusive: 14.6 µM [falling, partial curve, poor fit]"
17,Cc1cccc(NC(=S)NC2CC3CCCC(C2)N3Cc2ccccc2)c1C (stereo not drawn),"inconclusive: 0.146 µM [activator, full curve, poor fit]"
18,CCc1ccccc1NC(=O)c1ccc(CN2C(=O)CCn3nc(C)cc32)cc1,inactive
19,CC(C)(C)NC(=O)NC(=O)COC(=O)c1cccc(NS(=O)(=O)c2ccc(F)c(F)c2)c1,inactive
20,O=C(N/N=C\c1ccc([N+](=O)[O-])s1)c1cncc(Br)c1,active: 23.1 µM
21,CC1Cc2ccccc2N1C(=O)COc1nc2ccccc2nc1N1CCOCC1 (stereo not drawn),inactive
22,CC(C)N(Cc1nc(-c2ccc(Cl)cc2)no1)C(=O)/C=C/c1ccccc1,"inconclusive: 20.6 µM [falling, single point]"

row,SMILES,Potency
1,COc1cc(OC)cc(C(=O)c2c(C)c(C#N)c3ccccn23)c1,"inconclusive: 8.2 µM [falling, partial curve, poor fit]"
2,CN(Cc1cccs1)C(=O)CSc1nc2ccccc2[nH]1,"inconclusive: 5.8 µM [activator, partial curve, poor fit]"
3,O=c1[nH]c(/C=C\c2ccc(O)c(O)c2)nc(O)c1[N+](=O)[O-],"inconclusive: 16.4 µM [falling, single point]"
4,CCOc1cccc(N(C(=O)Cc2cccs2)C(C(=O)NC2CCCCC2)c2cccn2C)c1 (stereo not drawn),inactive
5,COc1cccc(C(=O)NC(=S)NCc2ccco2)c1,"inconclusive: 5.17 µM [activator, partial curve, poor fit]"
6,CCC(=N\NC(=O)COc1ccccc1OC)/C(CC)=N/NC(=O)COc1ccccc1OC,"inconclusive: 8.2 µM [activator, partial curve, poor fit]"
7,CC(C)(C)n1nnnc1CN1CCN(C(c2ccccc2)c2ccccc2)CC1,inactive
8,CCCCCCCn1c2c(c(=N)c3ccccc31)CCC2,"inconclusive: 11.6 µM [falling, partial curve]"
9,COc1ccc(NC(=O)CC2C(=O)N(C)C(=S)N2CCc2ccc(F)cc2)cc1 (stereo not drawn),"inconclusive: 32.6 µM [falling, partial curve, poor fit]"
10,CCCn1c(=O)c2sccc2n2c(CCCC(=O)Nc3ccc(Oc4ccc(Cl)cc4)cc3)nnc12,"inconclusive: 23.1 µM [falling, partial curve, poor fit]"
11,CCN(CC)S(=O)(=O)c1cc(NC(=O)COC(=O)c2c(C)noc2C)ccc1C,"inconclusive: 18.4 µM [falling, partial curve]"
12,Cc1ccccc1S(=O)(=O)Cc1ccc(C(=O)NC2CC2)o1,"inconclusive: 29.1 µM [falling, single point]"
13,Cn1c(/C(C#N)=C(\O)c2ccc(Br)s2)nc2ccccc21,inactive
14,O=C1NCC(c2ccccc2)C1C(=O)N/N=C\c1ccc(-c2ccc(Cl)c(Cl)c2)o1 (stereo not drawn),"inconclusive: 29.1 µM [falling, partial curve, poor fit]"
15,COc1ccc(CCNC(=O)Cc2c(C)c3c(cc(C)c4c(C)c(C)oc43)oc2=O)cc1,inactive
16,CC(=O)c1ccc(N2CCN(c3ncnc4c3nc3n4CCCC3)CC2)cc1,inactive
17,Cc1ccc(S(=O)(=O)N(CC(=O)NCCc2ccc(Cl)cc2)c2ccccc2C)cc1,"inconclusive: 20.6 µM [falling, partial curve, poor fit]"
18,Cc1c(C(=O)Nc2cccc(-c3nc4ccccc4s3)c2)oc2ccccc12,inactive
19,CCOC(=O)C(NC(=O)c1cccc(Cl)c1)(OCc1ccc(F)cc1)C(F)(F)F (stereo not drawn),"inconclusive: 29.1 µM [falling, single point]"
20,Cc1cc2c(=O)n(Cc3ccco3)c(SCC(=O)c3ccc(Cl)s3)nc2s1,"inconclusive: 23.1 µM [falling, partial curve, poor fit]"
21,O=C(OCC(=O)N1CCC(c2ccccc2)=N1)c1ccc([N+](=O)[O-])s1,"inconclusive: 16.4 µM [falling, single point]"

# Taken from above.
# Cc1ccc(S(=O)(=O)N(CC(=O)NCCc2ccc(Cl)cc2)c2ccccc2C)cc1 – Potency: inconclusive: 20.6 µM [falling, partial curve, poor fit]
# CCN(CC)S(=O)(=O)c1cc(NC(=O)COC(=O)c2c(C)noc2C)ccc1C – Potency: inconclusive: 18.4 µM [falling, partial curve]
